PubChem BioAssay AID1508597, Cure First – 2020
This is a random part of the about 2,100 reagents, under one of the conditions tested. 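Calls flag viability under 80% in either arm, not effects specific to rucaparib; the reference for percent is not stated.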 Unmarked entries are inactive. The record does not give: the 100% reference.

- Screen: 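Genes whose silencing sensitises or protects ovarian cancer cells against rucaparib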 (primary screen)
- Cells: human ovarian carcinoma lines grown from tumours: OCI-P5x (papillary serous) and OCI-C5x (clear cell)
- Reagent: siRNA pool against human genes, 1.25 pmol siRNA per well
- Duration: 72 h or 96 h, depending on the cell culture
- Treatment: rucaparib 20 µM (about IC30) or vehicle, present until read-out
- Rucaparib or vehicle: Rucaparib
- Cell line: OCI-P5x (serous)
- Measurement: 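ATP luminescence measured at 72 or 96 h according to the culture, then normalised and expressed as percent viability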
- Reading the numbers: viability, normalised: higher = more viable cells remaining
- Active means: 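Active when normalised viability falls below 80 percent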
- Meaning of the calls: active = viability under 80%; inactive = viability 80% or more

| target | technical replicate | viability, normalised (%) |
| --- | --- | --- |
| STK11 (serine/threonine kinase 11) | 1 | 116 |
| STK11 (serine/threonine kinase 11) | 2 | 95.8 |
| STK11 (serine/threonine kinase 11) | 3 | 81.2 |
| FOXF2 (forkhead box F2) | 1 | 72.9 (active) |
| FOXF2 (forkhead box F2) | 2 | 82.1 |
| FOXF2 (forkhead box F2) | 3 | 84.6 |
| PIP5K1C (phosphatidylinositol-4-phosphate 5-kinase type 1 gamma) | 1 | 55.5 (active) |
| PIP5K1C (phosphatidylinositol-4-phosphate 5-kinase type 1 gamma) | 2 | 79.2 (active) |
| PIP5K1C (phosphatidylinositol-4-phosphate 5-kinase type 1 gamma) | 3 | 44.7 (active) |
| MAD2L1 (mitotic arrest deficient 2 like 1) | 1 | 104 |
| MAD2L1 (mitotic arrest deficient 2 like 1) | 2 | 96.2 |
| MAD2L1 (mitotic arrest deficient 2 like 1) | 3 | 65.1 (active) |
| SMYD2 (SET and MYND domain containing 2) | 1 | 55.8 (active) |
| SMYD2 (SET and MYND domain containing 2) | 2 | 54.7 (active) |
| SMYD2 (SET and MYND domain containing 2) | 3 | 65.3 (active) |
| ITPK1 (inositol-tetrakisphosphate 1-kinase) | 1 | 62.7 (active) |
| ITPK1 (inositol-tetrakisphosphate 1-kinase) | 2 | 69.6 (active) |
| ITPK1 (inositol-tetrakisphosphate 1-kinase) | 3 | 70.1 (active) |
| RAPGEF3 (Rap guanine nucleotide exchange factor 3) | 1 | 95.2 |
| RAPGEF3 (Rap guanine nucleotide exchange factor 3) | 2 | 108 |
| RAPGEF3 (Rap guanine nucleotide exchange factor 3) | 3 | 106 |
| ZDHHC2 (zDHHC palmitoyltransferase 2) | 1 | 82.8 |
| ZDHHC2 (zDHHC palmitoyltransferase 2) | 2 | 67.2 (active) |
| ZDHHC2 (zDHHC palmitoyltransferase 2) | 3 | 83.7 |
| MED7 (mediator complex subunit 7) | 1 | 39.1 (active) |
| MED7 (mediator complex subunit 7) | 2 | 62 (active) |
| MED7 (mediator complex subunit 7) | 3 | 48.5 (active) |
| MLH1 (mutL homolog 1) | 1 | 56.8 (active) |
| MLH1 (mutL homolog 1) | 2 | 49.3 (active) |
| MLH1 (mutL homolog 1) | 3 | 67 (active) |
| CLDN14 (claudin 14) | 1 | 62.7 (active) |
| CLDN14 (claudin 14) | 2 | 76.3 (active) |
| CLDN14 (claudin 14) | 3 | 71.2 (active) |
| TESK2 (testis associated actin remodelling kinase 2) | 1 | 112 |
| TESK2 (testis associated actin remodelling kinase 2) | 2 | 93.9 |
| TESK2 (testis associated actin remodelling kinase 2) | 3 | 77.2 (active) |
| GON4L (gon-4 like) | 1 | 46.4 (active) |
| GON4L (gon-4 like) | 2 | 46.9 (active) |
| GON4L (gon-4 like) | 3 | 51.4 (active) |
| PCSK9 (proprotein convertase subtilisin/kexin type 9) | 1 | 56.9 (active) |
| PCSK9 (proprotein convertase subtilisin/kexin type 9) | 2 | 59.4 (active) |
| PCSK9 (proprotein convertase subtilisin/kexin type 9) | 3 | 55.6 (active) |
| BBC3 (BCL2 binding component 3) | 1 | 77.2 (active) |
| BBC3 (BCL2 binding component 3) | 2 | 83.6 |
| BBC3 (BCL2 binding component 3) | 3 | 90.3 |
| HMG20A (high mobility group 20A) | 1 | 72.2 (active) |
| HMG20A (high mobility group 20A) | 2 | 70.9 (active) |
| HMG20A (high mobility group 20A) | 3 | 58.9 (active) |
| TIMM50 (translocase of inner mitochondrial membrane 50) | 1 | 56 (active) |
| TIMM50 (translocase of inner mitochondrial membrane 50) | 2 | 50.5 (active) |
| TIMM50 (translocase of inner mitochondrial membrane 50) | 3 | 38.5 (active) |
| FANCB (FA complementation group B) | 1 | 85.1 |
| FANCB (FA complementation group B) | 2 | 95.6 |
| FANCB (FA complementation group B) | 3 | 74.4 (active) |
| XYLB (xylulokinase) | 1 | 87.8 |
| XYLB (xylulokinase) | 2 | 112 |
| XYLB (xylulokinase) | 3 | 93.5 |
